A number of entries come with more than one value. The list is limited to them. There may be further records. Results that share an entry differ for a reason that is not stated; dose, time, organism, isomer or construct need not be as stated for each record.
Assays:
HCT-116 cells = assay: alamarBlue proliferation assay with HCT-116 cells; conditions: read-out: Activity on HCT-116: IC50, McCoy's 5A medium, 10% FBS
Source text: (§1) These hyperproliferative processes can be benign or malignant and include hyperplasia, neoplasia, cancer and pre-cancerous lesions, and metastases. […] The readout was taken with a multi-well plate-reader (Tecan Spark®) in the fluorescence mode with applying a filter for excitation at 560 nm (band width 10 nm) and for emission at 590 nm (band width 10 nm). […]

NB-4 cells = assay: alamarBlue proliferation assay with NB-4 cells; conditions: read-out: Activity on NB-4: IC50, RPMI 1640 medium, 10% FBS
Source text: as §1

A-431 cells = assay: alamarBlue proliferation assay with A-431 cells; conditions: read-out: Activity on A-431: IC50, DMEM medium, 10% FBS
Source text: as §1

Row | Structure (SMILES) | IC50 (HCT-116 cells) | IC50 (NB-4 cells) | IC50 (A-431 cells)
1 | O=C(c1ccc(Oc2ccc(C3CCCCC3)cc2CO)cn1)N1CCN(Cc2ccccc2)CC1 | ≤ 5 µM and ≤ 1 µM | ≤ 5 µM and ≤ 1 µM | –
2 | CCCCN1CCN(C(=O)c2ccc(Oc3ccc(C4CCC5(CC4)OCCO5)cc3CO)cc2)CC1 | – | – | ≤ 20 µM and ≤ 5 µM

Source: US20260384421A1, “NOVEL COMPOUNDS THAT CAN BE USED AS THERAPEUTIC AGENTS” (published 2026)
